# Experimental data published in PubChem BioAssay AID504467 (National Center for Advancing Translational Sciences (NCATS), 2011).
# The whole screen tested about 330,000 compounds, of which about 7,700 (2.3%) were called active. Inconclusive results, whose numbers are uncertain, are shown with a selection of clear calls. The call rests on the fitted dose curve; in most records, active means well fitted inhibition curve with a large enough effect; inconclusive means small, poorly fitted or top-dose-only effect, or effect the other way; inactive means flat fitted curve, though single readings scatter. A potency beside an inconclusive call is a rough fit, not a confirmed value.
# Experiment: qHTS screen for small molecules that inhibit ELG1-dependent DNA repair in human embryonic kidney (HEK293T) cells expressing luciferase-tagged ELG1; further: nearly all actives have a fitted effect of over 55% in size
# Settings: HEK293T ELG1-luciferase reporter, luminescence, 16 h, DNA damage induced by 5-fluorouridine; series mostly up to 46.1 µM
# Procedure, shortened: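 Step one: seed 2,000 cells per well. Step two: pin-transfer compound or DMSO alongside 5-fluorouridine. Step three: incubate 16 hr, 37 °C, 5% CO2. Step four: add ONE-Glo, wait 30 min, read luminescence.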
# Potency means the concentration at half of the fitted maximal effect.
row,SMILES,Potency
1,NS(=O)(=O)c1ccc(NC(=O)COC(=O)c2cc(Cl)ccc2[N+](=O)[O-])cc1,inactive
2,CC1(C)CC(=O)N(c2cccc(C(F)(F)F)c2)C(=O)C1,inactive
3,CCN(C[C@H]1N[C@@](C)(C(=O)OC)[C@H]2C(=O)N(C)C(=O)[C@@H]12)C(=O)COC,"inconclusive: 10.3 µM [activator, partial curve, poor fit]"
4,CCn1nccc1C(=O)Nc1ccc(Cl)cn1,"inconclusive: 20.6 µM [activator, single point]"
5,Cc1ccc(N2C(=O)CCC(C(=O)O)C2c2cccs2)cc1 (stereo not given),"inconclusive: 2.31 µM [inhibitor, partial curve, poor fit]"
6,Cc1ccc2nc(SC(C)C(=O)NC3CCCc4ccccc43)[nH]c2c1 (stereo not given),"inconclusive: 29.1 µM [inhibitor, partial curve, poor fit]"
7,COc1ccc(CCN2CCCn3c2nc2c3c(=O)n(CC(C)C)c(=O)n2C)cc1OC,"inconclusive: 29.1 µM [inhibitor, single point]"
8,CCOC(=O)COc1ccccc1C1Nc2ccccc2C(=O)N1c1cccc(Cl)c1 (stereo not given),"inconclusive: 20.6 µM [activator, partial curve]"
9,O=C1CCC(O)CCN1CCSc1ccccc1 (stereo not given),"inconclusive: 5.17 µM [activator, partial curve]"
10,CNc1nc(N)c([N+](=O)[O-])c(NCCO)n1,"inconclusive: 29.1 µM [activator, single point]"
11,COc1cccc(C2=NOC(C(=O)Nc3cc(C)on3)C2)c1OC (stereo not given),"inconclusive: 16.4 µM [inhibitor, partial curve, poor fit]"
12,CC1CCC(NC(=O)CCNC(=O)c2ccc(Br)cc2)CC1 (stereo not given),"inconclusive: 20.6 µM [activator, single point]"
13,COc1ccc(-c2n[nH]c(C)c2-c2ccc(OC)c(OC)c2)c(O)c1,"inconclusive: 29.1 µM [inhibitor, single point]"
14,COc1ccc(S(=O)(=O)Nc2cccc3c2O[C@H](CN(C)S(=O)(=O)c2ccc(Cl)cc2)[C@H](C)CN([C@H](C)CO)C3=O)cc1,inactive
15,CC(Oc1cccc(Cl)c1)C(=O)Nc1cc(Cl)ccc1N1CCOCC1 (stereo not given),"inconclusive: 1.64 µM [activator, partial curve, poor fit]"
16,O=C1c2ccccc2CN1CCNC(=S)NC1CCCCC1,"inconclusive: 23.1 µM [activator, partial curve]"
17,O=C(N/N=C/C=C/c1ccccc1[N+](=O)[O-])c1cc(-c2ccccc2)n[nH]1,"inconclusive: 23.1 µM [inhibitor, single point]"
18,CCCCOC(=O)C1=C(C)Nc2nnnn2C1c1ccccc1Cl (stereo not given),"inconclusive: 20.6 µM [inhibitor, single point]"
19,c1ccc(-c2ncc(CSc3nncn3-c3ccccc3)s2)cc1,inactive
20,CCC(=O)Nc1cccc2cccnc12,"inconclusive: 29.1 µM [activator, single point]"
21,COc1ccc(NC(=O)c2ccccc2NC(=O)CSc2ccc(Cl)cc2)cc1,"inconclusive: 20.6 µM [inhibitor, single point]"
22,COc1ccc(N(CC(=O)Nc2ccc3c(c2)OCO3)S(=O)(=O)c2ccccc2)c(OC)c1,active: 14.6 µM
23,C/C(=N\NC(=O)c1cc(C)oc1C)c1ccc2c(c1)OCO2,"inconclusive: 18.3 µM [activator, partial curve]"

# Another view of some results above.
row	SMILES	Potency
1	NS(=O)(=O)c1ccc(NC(=O)COC(=O)c2cc(Cl)ccc2[N+](=O)[O-])cc1	inactive
22	COc1ccc(N(CC(=O)Nc2ccc3c(c2)OCO3)S(=O)(=O)c2ccccc2)c(OC)c1	active: 14.6 µM

# Next part:

row,SMILES,Potency
1,COc1ccc(S(=O)(=O)N(CC(=O)N2CCCCCC2)c2ccccc2OC)cc1,inactive
2,CCOC(=O)c1c(Cc2ccc(Cl)cc2)c[nH]c1C,"inconclusive: 16.4 µM [activator, partial curve]"
3,Fc1cc(F)nc(NCc2ccccc2)n1,inactive
4,Cc1nn(CC(=O)Nc2cc(S(=O)(=O)N3CCOCC3)ccc2Cl)c(C)c1[N+](=O)[O-],"inconclusive: 20.6 µM [inhibitor, single point]"
5,COc1cc2cc(CCOC(=O)c3ccc(F)cc3)oc(=O)c2cc1OC,"inconclusive: 20.6 µM [inhibitor, partial curve, poor fit]"
6,Cc1cc(C(=O)Nc2nc3c(C)cccc3s2)c(C)o1,inactive
7,N#Cc1ccccc1NC(=O)C1SC(=Nc2ccccc2)C(C(=O)Nc2ccc(Cl)cc2)=C1N (stereo not given),"inconclusive: 20.6 µM [inhibitor, single point]"
8,CCOc1ccc(S(=O)(=O)N2CCC(C(=O)N3CCCCCC3)CC2)cc1C,inactive
9,CC(=O)C1=NN(c2ccccc2)C(c2cccs2)N1c1ccc(N(C)C)cc1 (stereo not given),active: 16.4 µM
10,CCCn1c(CC)nc([N+](=O)[O-])c1Sc1ccc(C)cc1,"inconclusive: 10.3 µM [inhibitor, partial curve]"
11,Cc1ccc(C)c(NC(=O)c2ccccc2C(=O)c2ccccc2)c1,"inconclusive: 29.1 µM [inhibitor, single point]"
12,Cn1cccc1C(=O)OCC(=O)N1CCN(c2ccccc2)CC1,inactive
13,COc1ccc(Cn2nnnc2C(C(C)C)N2CCN(c3ccccc3OC)CC2)cc1 (stereo not given),"inconclusive: 29.1 µM [inhibitor, single point]"
14,C/C(N)=C(/C#N)C(=O)COC(=O)[C@@H](NC(=O)c1ccccc1Cl)C(C)C,inactive
15,C=CCc1ccccc1OCCn1nnc2ccccc21,inactive
16,O=C(C1CCCN(S(=O)(=O)c2ccc(Br)s2)C1)N1CCN(c2ccccc2)CC1 (stereo not given),active: 14.6 µM
17,COc1cc(NC(=O)c2cnc(N)s2)cc(C(=O)Nc2cccc(C(F)(F)F)c2)c1,inactive
18,O=C(NNC(=S)Nc1ccc(F)cc1F)c1ccco1,"inconclusive: 18.3 µM [activator, partial curve]"
19,CCOc1ccccc1NS(=O)(=O)c1ccc(-c2cnc(C3CC3)o2)cc1,inactive
20,O=C(CSc1nc2ccc(Cl)cc2[nH]1)NCc1ccco1,inactive
21,Cc1c(OCc2ccccc2)c(=O)ccn1Cc1ccc(Cl)cc1,"inconclusive: 29.1 µM [inhibitor, partial curve, poor fit]"
22,Cc1c(C(=O)N2CCOCC2)c(S(=O)(=O)N2CCN(c3ccc(Cl)cc3)CC2)c(C)n1C,inactive
